Laboratory results as given in patent US20220411491A1.
No constants are given. Whether binding was seen depends on the method and setting. Some entries that bind do so weakly or less than the wild type.

Chains of the proteins cited; added tags and fusions are not shown. Lines headed by an entry give the natural chain unless they say otherwise; changes in a name come on top.
UniProt Q9NZD1: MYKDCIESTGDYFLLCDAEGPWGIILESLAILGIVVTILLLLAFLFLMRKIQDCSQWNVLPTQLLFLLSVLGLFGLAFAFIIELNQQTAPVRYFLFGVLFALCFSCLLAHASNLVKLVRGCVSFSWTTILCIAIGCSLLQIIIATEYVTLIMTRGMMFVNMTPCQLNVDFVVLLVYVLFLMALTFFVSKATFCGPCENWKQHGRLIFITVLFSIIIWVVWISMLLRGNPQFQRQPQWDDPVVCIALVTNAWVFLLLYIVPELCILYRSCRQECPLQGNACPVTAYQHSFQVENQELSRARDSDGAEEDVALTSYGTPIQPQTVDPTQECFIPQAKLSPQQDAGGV

Target: human GPRC5D (human) (UniProt Q9NZD1)
Assay: cell ELISA on CHO cells expressing human GPRC5D

- binding: binds
B1: 07A04 IgG (antibody, V domains shown)
VH: QVTLKESGPGILQPSHTLSLTCSFSGFSLSTYGMGVNWIRQPSGKGLEWLASIWWNGNTYNNPSLKSRLTVSKDTSNNQAFLKVTSVDTADTATYYCVHTRGIIRGRGLFFDYWGQGVMVTVSS
VL: DVQMTQSPYNLAASPGESVSINCKASKSISKYLAWYQQKPGKANKLLIYDGSTLQSGIPSRFSGSGSGTDFTLTIRSLEPEDFGLYYCQQHNEYPLTFGSGTKLEIKR
